One substance from publication PMC9156709 can be followed below.

This assay has as its target T1, Flag-HA tagged PFKP (human) (UniProt Q01813).
T1 sequence: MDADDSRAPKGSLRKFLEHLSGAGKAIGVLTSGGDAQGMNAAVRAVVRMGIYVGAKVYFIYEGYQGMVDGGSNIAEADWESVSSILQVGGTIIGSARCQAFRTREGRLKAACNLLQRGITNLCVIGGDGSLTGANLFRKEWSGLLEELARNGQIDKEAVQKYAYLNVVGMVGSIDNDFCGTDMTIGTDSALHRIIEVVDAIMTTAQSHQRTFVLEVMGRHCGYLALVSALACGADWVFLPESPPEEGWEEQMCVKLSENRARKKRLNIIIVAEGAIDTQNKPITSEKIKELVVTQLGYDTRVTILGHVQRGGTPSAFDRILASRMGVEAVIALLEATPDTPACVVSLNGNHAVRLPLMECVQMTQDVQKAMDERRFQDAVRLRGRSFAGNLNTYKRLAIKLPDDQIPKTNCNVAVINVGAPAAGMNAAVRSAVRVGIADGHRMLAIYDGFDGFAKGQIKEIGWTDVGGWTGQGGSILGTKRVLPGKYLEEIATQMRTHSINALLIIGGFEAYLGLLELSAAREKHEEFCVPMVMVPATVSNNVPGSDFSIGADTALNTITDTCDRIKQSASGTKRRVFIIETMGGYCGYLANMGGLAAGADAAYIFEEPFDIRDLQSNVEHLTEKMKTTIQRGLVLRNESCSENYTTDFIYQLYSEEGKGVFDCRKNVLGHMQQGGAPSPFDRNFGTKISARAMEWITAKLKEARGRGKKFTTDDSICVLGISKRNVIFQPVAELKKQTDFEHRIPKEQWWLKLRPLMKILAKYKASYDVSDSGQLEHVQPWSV
The experiment in a line: pull-down; in vitro protein-protein interaction assay: Flag-HA tagged PFKP or domains purified by Flag IP and held on FLAG M2 beads, incubated with 50 ng tagged AMPK complex in 1 mL lysis buffer (20 mM Tris pH 7.4, 150 mM NaCl, 1 mM EDTA, 1 mM EGTA, 1% Triton X-100) for 1 h at room temperature, washed thrice, western blot; both purified.

These are yes or no findings as the source states them, for the method shown. Binding can be weak; no strength is given. Where a sequence is shown, tags or fusion partners need not be part of it.

Turning to His-tagged AMPKα1/β1/γ2 (complex), the binding entry is given as “binds”.
